{"source": "patent US9187475B2", "about": "“Pyrrolopyridinone derivatives as TTX-S blockers” (RaQualia Pharma Inc., priority 2012, dated 2015)", "origin": "cited, not measured here", "test_system": "TTX-R and TTX-S sodium channels", "conditions": "background art; limits printed in microM and mM; cited from earlier work", "note": "Some of these results come from one statement about several compounds together."}
{"smiles": "FC(F)(F)C(Cl)Br", "note": "(centres unmarked) [halothane]", "values": [{"measurement": "IC50", "value": "0.05 to 10", "unit": "mM"}]}
{"smiles": "CCN(CC)CC(=O)Nc1c(C)cccc1C", "note": "[lidocaine]", "values": [{"measurement": "IC50", "value": "0.05 to 10", "unit": "mM"}]}
